PubChem BioAssay AID1259308 | NCATS – 2017
Assay: 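Knock-downs that increase output of a recombinant reporter protein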 (primary screen). System: human HEK293 embryonic kidney cells stably expressing firefly luciferase (HEK-CMV-Luc2-Hygro). Knock-down reagent: single siRNA against human genes, 0.8 pmol siRNA per well. Timing: 72 h. Measurement: 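Reporter luminescence and viable-cell signal on separate replicate plates, given as percent of non-targeting control and median/MAD z-scores, plus per-cell luciferase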. Reading the numbers: total luciferase, z-score and total luciferase, % of control: higher = more reporter protein produced. Active means: 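Active when the median/MAD z-score for overall luciferase is greater than 3; a gene was taken forward for validation with new siRNAs if at least two of its three siRNAs passed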. Calls: active = raised luciferase; inactive = no rise.
Shown is one part, drawn at random, of about 59,000 deposited reagents. Of all reagents, about 1,510 (2.6%) got an active call. 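Calls use total luciferase alone and ignore viability, so some active siRNAs may act by altering cell number.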 A number with no mark means an inactive call. Reagents against one gene are numbered here. Not all columns of the deposit are shown. No sequences are given here.

With knock-down of CDKN2C #1, the screen gave total luciferase, z-score -1.77; total luciferase, % of control 46.7.
CDKN2C #2 showed total luciferase, z-score -0.0737; total luciferase, % of control 80.4.
Depletion of CDKN2C #3 gave: total luciferase, z-score -0.76; total luciferase, % of control 66.8.
MLXIP #1 showed total luciferase, z-score 0.0486; total luciferase, % of control 82.9.
Silencing of MLXIP #2 resulted in: total luciferase, z-score 1.16; total luciferase, % of control 105.
Knock-down of MLXIP #3 gave: total luciferase, z-score -1.62; total luciferase, % of control 49.6.
With knock-down of PRNT #1 the results were total luciferase, z-score -1.48; total luciferase, % of control 52.5.
After knock-down of PRNT #2, the screen gave total luciferase, z-score 0.408; total luciferase, % of control 90.
Silencing of PRNT #3 came out at: total luciferase, z-score 0.509; total luciferase, % of control 92.
After knock-down of MMP2 #1 the results were total luciferase, z-score -0.582; total luciferase, % of control 70.3.
For MMP2 #2, the entry reads total luciferase, z-score 1.03; total luciferase, % of control 102.
Against MMP2 #3, the entry reads total luciferase, z-score -0.896; total luciferase, % of control 64.1.
Knock-down of SSH1 #1 came out at: total luciferase, z-score 0.471; total luciferase, % of control 91.3.
Against SSH1 #2, the entry reads total luciferase, z-score 0.124; total luciferase, % of control 84.4.
SSH1 #3 gave total luciferase, z-score -0.758; total luciferase, % of control 66.8.
Depletion of GSDME #1 came out at: total luciferase, z-score -0.549; total luciferase, % of control 71.
With knock-down of GSDME #2 the results were total luciferase, z-score 0.0605; total luciferase, % of control 83.1.
Against GSDME #3, the entry reads total luciferase, z-score -0.407; total luciferase, % of control 73.8.

Sorted by “total luciferase, % of control” (highest first): some entries from above.
MMP2 #2 → total luciferase, z-score = 1.03; total luciferase, % of control = 102
SSH1 #1 → total luciferase, z-score = 0.471; total luciferase, % of control = 91.3
SSH1 #2 → total luciferase, z-score = 0.124; total luciferase, % of control = 84.4
MMP2 #1 → total luciferase, z-score = -0.582; total luciferase, % of control = 70.3
MMP2 #3 → total luciferase, z-score = -0.896; total luciferase, % of control = 64.1

The listing continues:
PRKAG2-AS2 #1 gave total luciferase, z-score 0.261; total luciferase, % of control 87.1.
Knock-down of PRKAG2-AS2 #2 came out at: total luciferase, z-score 1.75; total luciferase, % of control 117.
With knock-down of PRKAG2-AS2 #3, the screen gave total luciferase, z-score -0.0114; total luciferase, % of control 81.7.
Knock-down of PRKAG2-AS2 #4 gave: total luciferase, z-score -0.418; total luciferase, % of control 73.6.
Depletion of PRKAG2-AS2 #5 came out at: total luciferase, z-score 0.408; total luciferase, % of control 90.
After knock-down of PRKAG2-AS2 #6 the results were total luciferase, z-score -0.229; total luciferase, % of control 77.3.
For RPL14P1 #1, the values are total luciferase, z-score -2.51; total luciferase, % of control 32.
Against RPL14P1 #2, the entry reads total luciferase, z-score -2.84; total luciferase, % of control 25.4.
Silencing of RPL14P1 #3 came out at: total luciferase, z-score -3.6; total luciferase, % of control 10.2.
With knock-down of ACOT12 #1 the results were total luciferase, z-score -0.137; total luciferase, % of control 79.2.
ACOT12 #2 gave total luciferase, z-score -0.178; total luciferase, % of control 78.3.
Knock-down of ACOT12 #3 resulted in: total luciferase, z-score 0.034; total luciferase, % of control 82.6.
IGLV5-39 #1 gave total luciferase, z-score 2.91; total luciferase, % of control 140.
IGLV5-39 #2 showed total luciferase, z-score -0.0551; total luciferase, % of control 80.8.
IGLV5-39 #3 gave total luciferase, z-score -0.893; total luciferase, % of control 64.1.
